Source: article PMC9971195
These are yes or no findings as the source states them, for the method shown. In cells and extracts the contact can be indirect. Some binding calls cover weakened binding; strength is not graded here.

Columns and labels:
[1] = biological target: T1, CEMIP (cell migration-inducing and hyaluronan-binding protein), endogenous (human (endogenous in HCT116)) (UniProt Q8WUJ3); test: proximity ligation; Duolink in situ fluorescence on fixed HCT116 cells, endogenous proteins, pairs of primary antibodies 2 h at 37 °C, IgG pair as control, confocal microscope
T1 sequence: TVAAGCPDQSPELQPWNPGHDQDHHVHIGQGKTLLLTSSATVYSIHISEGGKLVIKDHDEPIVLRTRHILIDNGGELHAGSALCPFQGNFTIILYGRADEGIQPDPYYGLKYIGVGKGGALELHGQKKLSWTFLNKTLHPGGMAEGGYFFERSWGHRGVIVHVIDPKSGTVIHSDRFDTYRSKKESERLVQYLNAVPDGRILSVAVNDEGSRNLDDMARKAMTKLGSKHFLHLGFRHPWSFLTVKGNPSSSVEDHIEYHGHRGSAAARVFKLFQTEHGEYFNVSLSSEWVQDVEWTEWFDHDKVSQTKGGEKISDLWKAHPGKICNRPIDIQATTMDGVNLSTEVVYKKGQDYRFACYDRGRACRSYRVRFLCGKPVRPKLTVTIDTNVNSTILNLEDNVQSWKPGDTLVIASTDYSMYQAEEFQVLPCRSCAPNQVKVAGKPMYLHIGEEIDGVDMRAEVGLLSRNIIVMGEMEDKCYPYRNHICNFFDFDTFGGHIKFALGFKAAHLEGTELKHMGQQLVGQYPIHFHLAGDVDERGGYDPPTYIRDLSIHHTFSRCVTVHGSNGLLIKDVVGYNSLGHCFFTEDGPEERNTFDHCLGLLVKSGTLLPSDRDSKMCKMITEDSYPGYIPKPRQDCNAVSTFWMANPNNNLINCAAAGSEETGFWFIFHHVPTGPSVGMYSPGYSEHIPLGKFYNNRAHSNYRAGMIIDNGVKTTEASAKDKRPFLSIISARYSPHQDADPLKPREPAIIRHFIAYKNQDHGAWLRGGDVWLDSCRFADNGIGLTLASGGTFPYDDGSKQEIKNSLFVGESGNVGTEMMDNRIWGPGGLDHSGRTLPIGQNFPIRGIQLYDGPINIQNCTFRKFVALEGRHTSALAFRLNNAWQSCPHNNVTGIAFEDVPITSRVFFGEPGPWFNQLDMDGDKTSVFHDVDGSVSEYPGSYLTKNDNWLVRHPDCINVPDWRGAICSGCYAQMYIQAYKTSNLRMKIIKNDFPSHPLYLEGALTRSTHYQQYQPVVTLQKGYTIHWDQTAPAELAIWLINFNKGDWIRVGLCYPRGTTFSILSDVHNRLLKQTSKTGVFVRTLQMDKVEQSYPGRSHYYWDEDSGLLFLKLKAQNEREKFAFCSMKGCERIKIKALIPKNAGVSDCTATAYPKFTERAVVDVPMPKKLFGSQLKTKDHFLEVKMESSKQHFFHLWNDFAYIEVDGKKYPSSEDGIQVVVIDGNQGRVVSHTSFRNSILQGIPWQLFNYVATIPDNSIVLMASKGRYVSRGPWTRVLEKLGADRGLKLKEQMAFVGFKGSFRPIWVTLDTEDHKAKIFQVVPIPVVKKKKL

[2] = biological target: T1, CEMIP (cell migration-inducing and hyaluronan-binding protein), endogenous (human (endogenous in HCT116)); test: co-IP; endogenous proteins in HCT116 lysate, NETN buffer, Protein G agarose beads with primary antibody or IgG (negative control), overnight at 4 °C, western blot; for GRAF1 and MIB1 also with knock-down of CEMIP (shCEMIP)

binding [1]: binds
binding [2]: binds
B1: GRAF1 (also named ARHGAP26), endogenous (protein, UniProt Q9UNA1 1-814)
chain: MGLPALEFSDCCLDSPHFRETLKSHEAELDKTNKFIKELIKDGKSLISALKNLSSAKRKFADSLNEFKFQCIGDAETDDEMCIARSLQEFATVLRNLEDERIRMIENASEVLITPLEKFRKEQIGAAKEAKKKYDKETEKYCGILEKHLNLSSKKKESQLQEADSQVDLVRQHFYEVSLEYVFKVQEVQERKMFEFVEPLLAFLQGLFTFYHHGYELAKDFGDFKTQLTISIQNTRNRFEGTRSEVESLMKKMKENPLEHKTISPYTMEGYLYVQEKRHFGTSWVKHYCTYQRDSKQITMVPFDQKSGGKGGEDESVILKSCTRRKTDSIEKRFCFDVEAVDRPGVITMQALSEEDRRLWMEAMDGREPVYNSNKDSQSEGTAQLDSIGFSIIRKCIHAVETRGINEQGLYRIVGVNSRVQKLLSVLMDPKTASETETDICAEWEIKTITSALKTYLRMLPGPLMMYQFQRSFIKAAKLENQESRVSEIHSLVHRLPEKNRQMLQLLMNHLANVANNHKQNLMTVANLGVVFGPTLLRPQEETVAAIMDIKFQNIVIEILIENHEKIFNTVPDMPLTNAQLHLSRKKSSDSKPPSCSERPLTLFHTVQSTEKQEQRNSIINSSLESVSSNPNSILNSSSSLQPNMNSSDPDLAVVKPTRPNSLPPNPSPTSPLSPSWPMFSAPSSPMPTSSTSSDSSPVRSVAGFVWFSVAAVVLSLARSSLHAVFSLLVNFVPCHPNLHLLFDRPEEAVHEDSSTPFRKAKALYACKAEHDSELSFTAGTVFDNVHPSQEPGWLEGTLNGKTGLIPENYVEFL
